These are yes or no findings as the source states them, for the method shown. In cells and extracts the contact can be indirect. These calls come from enrichment with a bait or labelling near it, and not all partners need be listed. For part of these data: No binding means not detected with the bait.

Protein sequences, listed by entry. Tags and fused reporters are not part of them. Lines headed by an entry give the natural chain unless they say otherwise; changes in a name come on top.
UniProt O45149: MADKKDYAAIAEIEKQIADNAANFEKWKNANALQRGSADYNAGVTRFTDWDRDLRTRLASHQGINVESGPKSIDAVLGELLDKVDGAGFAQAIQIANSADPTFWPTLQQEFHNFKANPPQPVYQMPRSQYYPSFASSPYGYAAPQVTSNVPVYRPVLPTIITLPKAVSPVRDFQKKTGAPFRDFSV
UniProt Q9GYR5: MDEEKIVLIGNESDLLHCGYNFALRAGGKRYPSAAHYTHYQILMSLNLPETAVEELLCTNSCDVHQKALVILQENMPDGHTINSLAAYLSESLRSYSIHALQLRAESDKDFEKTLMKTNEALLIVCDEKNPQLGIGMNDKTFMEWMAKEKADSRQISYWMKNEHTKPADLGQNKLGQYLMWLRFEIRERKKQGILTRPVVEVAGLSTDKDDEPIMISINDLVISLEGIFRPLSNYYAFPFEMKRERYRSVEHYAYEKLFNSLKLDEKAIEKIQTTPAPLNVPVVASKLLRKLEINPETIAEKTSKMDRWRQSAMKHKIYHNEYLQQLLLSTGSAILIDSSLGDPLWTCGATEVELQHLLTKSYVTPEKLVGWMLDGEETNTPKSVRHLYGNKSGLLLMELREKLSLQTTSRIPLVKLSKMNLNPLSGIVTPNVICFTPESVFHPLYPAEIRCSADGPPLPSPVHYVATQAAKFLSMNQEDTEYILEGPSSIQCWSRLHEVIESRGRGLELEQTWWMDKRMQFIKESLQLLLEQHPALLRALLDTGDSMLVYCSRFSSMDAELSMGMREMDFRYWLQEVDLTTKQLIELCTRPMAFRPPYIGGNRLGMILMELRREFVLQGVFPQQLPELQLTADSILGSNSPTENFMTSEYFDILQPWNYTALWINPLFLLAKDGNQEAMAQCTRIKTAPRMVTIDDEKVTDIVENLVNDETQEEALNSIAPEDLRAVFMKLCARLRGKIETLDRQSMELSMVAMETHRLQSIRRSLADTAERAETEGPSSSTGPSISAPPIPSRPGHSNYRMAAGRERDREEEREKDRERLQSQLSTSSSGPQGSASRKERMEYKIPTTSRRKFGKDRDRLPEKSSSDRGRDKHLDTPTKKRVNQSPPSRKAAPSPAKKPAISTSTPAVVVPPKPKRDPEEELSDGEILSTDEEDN
UniProt P18334: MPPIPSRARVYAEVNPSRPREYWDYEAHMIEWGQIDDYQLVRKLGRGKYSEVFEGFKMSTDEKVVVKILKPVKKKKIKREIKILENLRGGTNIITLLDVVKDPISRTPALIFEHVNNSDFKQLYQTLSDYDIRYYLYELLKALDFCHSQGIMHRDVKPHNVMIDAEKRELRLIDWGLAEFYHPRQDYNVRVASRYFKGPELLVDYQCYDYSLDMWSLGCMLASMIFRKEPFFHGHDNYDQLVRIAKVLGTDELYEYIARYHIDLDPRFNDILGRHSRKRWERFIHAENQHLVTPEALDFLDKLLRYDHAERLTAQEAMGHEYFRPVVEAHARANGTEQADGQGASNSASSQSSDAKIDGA
UniProt Q9U2F5: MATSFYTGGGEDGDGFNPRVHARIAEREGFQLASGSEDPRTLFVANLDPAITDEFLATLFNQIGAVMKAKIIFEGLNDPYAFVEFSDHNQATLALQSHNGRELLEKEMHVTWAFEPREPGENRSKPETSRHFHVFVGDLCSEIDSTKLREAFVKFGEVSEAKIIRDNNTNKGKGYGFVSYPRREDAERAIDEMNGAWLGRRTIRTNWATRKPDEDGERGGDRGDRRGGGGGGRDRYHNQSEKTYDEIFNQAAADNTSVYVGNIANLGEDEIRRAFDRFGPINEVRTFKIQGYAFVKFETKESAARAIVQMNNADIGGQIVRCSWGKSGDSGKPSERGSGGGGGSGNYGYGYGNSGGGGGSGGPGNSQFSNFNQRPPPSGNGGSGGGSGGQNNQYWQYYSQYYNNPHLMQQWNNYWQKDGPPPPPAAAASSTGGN
UniProt Q94050: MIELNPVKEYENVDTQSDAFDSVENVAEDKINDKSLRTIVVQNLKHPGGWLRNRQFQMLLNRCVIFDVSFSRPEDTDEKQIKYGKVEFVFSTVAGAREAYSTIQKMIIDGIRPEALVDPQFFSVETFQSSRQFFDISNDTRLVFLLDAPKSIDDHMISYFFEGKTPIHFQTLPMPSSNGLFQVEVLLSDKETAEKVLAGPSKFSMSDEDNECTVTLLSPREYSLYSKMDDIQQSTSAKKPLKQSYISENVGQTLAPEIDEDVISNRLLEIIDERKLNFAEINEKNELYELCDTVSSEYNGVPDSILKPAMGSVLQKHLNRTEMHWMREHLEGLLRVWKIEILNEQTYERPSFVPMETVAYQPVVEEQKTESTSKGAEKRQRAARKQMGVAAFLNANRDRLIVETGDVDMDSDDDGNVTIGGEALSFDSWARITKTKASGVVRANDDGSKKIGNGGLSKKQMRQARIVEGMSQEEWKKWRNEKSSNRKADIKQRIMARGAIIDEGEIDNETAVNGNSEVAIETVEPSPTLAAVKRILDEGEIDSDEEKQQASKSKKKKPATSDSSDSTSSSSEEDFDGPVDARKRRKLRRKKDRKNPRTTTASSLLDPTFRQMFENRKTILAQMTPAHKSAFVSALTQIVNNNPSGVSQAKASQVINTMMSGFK
UniProt P91918: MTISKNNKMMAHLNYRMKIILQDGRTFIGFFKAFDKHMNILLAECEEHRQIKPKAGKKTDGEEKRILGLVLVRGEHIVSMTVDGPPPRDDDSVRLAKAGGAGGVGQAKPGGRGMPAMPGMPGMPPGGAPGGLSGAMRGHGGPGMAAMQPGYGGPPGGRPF

Assay [1] deals with GFP::SNA-1 (C. elegans (endogenous in embryo extract)) (UniProt O45149). The assay is described as follows: affinity purification with mass spectrometry; GFP::SNA-1 precipitated from PE906 embryo extract with anti-GFP nanobody agarose beads (GFP-Trap) against control agarose beads, triplicates, 1 h at 4°C; label-free LC-MS/MS (MaxQuant, Perseus; FDR < 0.01, S0 2.5); extract not treated with RNase.

Assay [2] shares this target. The assay can be described thus: affinity purification with mass spectrometry; as a1, but the PE906 embryo extract was pre-treated with 200 units/ml RNase T1 and 5 units/ml RNase A for 1 h at 4°C before the immunoprecipitation.
For assay [3], the target named is SNA-3::GFP (C. elegans (endogenous in embryo extract)) (UniProt Q9GYR5). The assay is described as follows: affinity purification with mass spectrometry; as a3, but the PE975 embryo extract was pre-treated with RNase A/T1 before the immunoprecipitation.
The target is the same in assay [4]. The assay is described as follows: affinity purification with mass spectrometry; SNA-3::GFP precipitated from PE975 embryo extract with anti-GFP nanobody agarose beads against control agarose beads, triplicates; label-free LC-MS/MS; extract not treated with RNase.
For assay [5] the target is unchanged. The assay can be described thus: condition: only extract pre-treated with RNase A/T1; affinity purification with mass spectrometry; as a3, but the PE975 embryo extract was pre-treated with RNase A/T1 before the immunoprecipitation.
The target of assay [6] is GFP::SNA-1 (C. elegans (endogenous in embryo extract)) (UniProt O45149). The assay can be described thus: condition: only extract pre-treated with RNase A and RNase T1; affinity purification with mass spectrometry; as a1, but the PE906 embryo extract was pre-treated with 200 units/ml RNase T1 and 5 units/ml RNase A for 1 h at 4°C before the immunoprecipitation.
The target in assay [7] is SNA-3::GFP (C. elegans (endogenous in embryo extract)) (UniProt Q9GYR5). The assay is described as follows: condition: only extract pre-treated with RNase A/T1; affinity purification with mass spectrometry; as a3, but the PE975 embryo extract was pre-treated with RNase A/T1 before the immunoprecipitation. This is another data set of the same source.
In assay [8] the target is GFP::SNA-1 (C. elegans (endogenous in embryo extract)) (UniProt O45149). The assay can be described thus: affinity purification with mass spectrometry; GFP::SNA-1 precipitated from PE906 embryo extract with anti-GFP nanobody agarose beads (GFP-Trap) against control agarose beads, triplicates, 1 h at 4°C; label-free LC-MS/MS (MaxQuant, Perseus; FDR < 0.01, S0 2.5); extract not treated with RNase. This is another data set of the same source.

Assay [9] has as its target SNA-3::GFP (C. elegans (endogenous in embryo extract)) (UniProt Q9GYR5). The assay is described as follows: affinity purification with mass spectrometry; SNA-3::GFP precipitated from PE975 embryo extract with anti-GFP nanobody agarose beads against control agarose beads, triplicates; label-free LC-MS/MS; extract not treated with RNase. The source holds these as a separate data set.

Consider “KIN-3 (from UniProt P18334 1-360) (enzyme)”, for which the binding entry in assay [1] and in [2] was “binds” throughout.
For TIAR-2 (from UniProt Q9U2F5), the results for the binding entry in assay [3], in assay [4] and in assay [1] were “binds”, “binds” and “no binding”, respectively.
For SNA-2 (from UniProt Q94050), the results for the binding entry in [4], in assay [1] and in assay [2] were “no binding”, “binds” and “binds”, respectively.
In the case of SNR-2 (from UniProt P91918 1-160), the binding entry is on record as “binds” in [4], “binds” in [1], “no binding” in assay [5] and “no binding” in [6].

B1: E01A2.2 (protein, UniProt Q966L5 1-712)
chain: MVDSDDDGDRRRDKFARERRDEDYRRGGGGFNRYDNKRPGGRRDDYQVKRSRGDDADDSFDPVSRSGNGSDLPTESDSIYSGPLQTFKKFLTSQEDDISEEDAIKKYNEYKTEHRKHQLERFFRAHKDEEWFRLKYKPDDAKKLREAHLENVQKRLQVFNELKEQGQFNKFSLDFGDAEAIIRMLDSVVVKLENGTEDELKAVLAQKLEDESLADIKKDENGNGTEQPKEEPEVKQESGATEELEEGAIEDGTEKSSNKVNIHRTCSVFLRNIPPGLTYEELEGLCKKSPGFLRLALTDGIAERKFYRRGWATFKRDINIKEICWALNAHRLRETDLNAIINRDITRRVRTNNGIASHKQVAINDLKLAVKLTVLYDKKIGLFNAADEADADREMDIRMGVDLVAASTNPLIKEVKSLVPHDVLNDISEEEAELLGVSNGGEAPAEKIRFERDDNILKALDLLIVYLRIVHSIDFYNHGHYAQEDSMPNRCGLIHVRGQPPSGVSITTDEDGALVVPQKFVNDFISGFNSRIEKGLIEKQYVSEEELEKMGKKDGEKEVEAFIQKNTVELAKDKWLCPLSGKKFKGPEFIRKHLQSKHEDKLEEARAEADFFNNYLADAQRPVDCEPKQAPRDDHRGGGGGERGGYGRERDDDRGPGGGGRNSFGGGGYDRRPQFPPRHSLGGRGGGGRYFEDAPRRQPVSYRDLDAPDDIP
For B1, the results for the binding result in assay [7], in assay [8] and in assay [9] were “no binding”, “no binding” and “binds”, respectively.

(Values after publication PMC9303266.)
